Results are given in words; binding and its absence hold for the method and conditions named. For some assays here: Binding can be weak; no strength is given.
Assays:
[1] = target: recombinant d-IIA^Glc (V. vulnificus); experiment: native gel or EMSA; recombinant proteins mixed in 50 mM Tris-HCl pH 8.0, 20 mM KCl, 50 mM MgCl2, 100 mM NaCl, 30 min at 30°C; 12% native polyacrylamide gel, Coomassie stain; a new band is read as the complex; both purified
[2] = target: recombinant original DctD2 (DctDWT) (V. vulnificus); experiment: as above

B1: recombinant GlpK (rGlpK) (enzyme, UniProt Q7MI93 1-505)
chain: MTEQKYIVALDQGTTSSRAVVLDHDANIVSVSQREFTQIYPQAGWVEHDPMEIYATQSSTLVEALGKKGIRSDQVAAIGITNQRETTIVWNKETGKPVYNAIVWQCRRTADICEDLKARGLESYIRENTGLVLDPYFSGTKVKWILDNVEGAREDAEAGKLLFGTVDTWLVWKMTQGRVHVTDYTNASRTMLFNINDLCWDSKLLEEMGIPASMMPEVKRSSEIYGQTNIGGKGGTRIPISGIAGDQQAALYGQMCVEAGQAKNTYGTGCFLLMNTGQEKVTSRNGLLTTLACGPKGEPAYALEGAVFMGGASIQWLRDELKLISDAHDSEYFATKVDTSNGVYVVPAFTGLGAPYWDAYARGTIVGLTRGVNSNHIIRATLEGIAYQTRDVLDAMQADSGIKLSALRVDGGAVANNFLMQFQSDVLDTEVHRPKVTEVTALGAAYLAGLAVGYWNSIDELQGKAEIDRSFLPHQDEEKRSRRYKGWKRAVKCAQTWSELRDLED
For B1, the binding [1] was “binds” and the binding [2] was “no binding (tested: 5 μM)”.
